The series relates to instigating LBC tumor / host platelets and bone marrow. The experiment in a line: Aspirin treatment in LBC-mediated systemic instigation: instigating LBC tumor, platelet counts, bone marrow VEGFR2+ cells. Format: in vivo, mice. As for the experimental part:
FIG. 35A. Experimental scheme to test effects of aspirin on LBC-mediated systemic instigation. All mice were injected with responders and LBC instigating tumors and treated with either 100 mg/kg aspirin or vehicle control; n=10 (5 mice per cohort for 2 independent experiments).
FIG. 35C. Numbers of VEGFR2+ cells in the bone marrow of experimental mice relative to those of cancer-free mice.
450 mg Aspirin (Sigma, A2093-100G) was dissolved in 11 ml DMSO to make a 41 mg/ml concentrated stock solution. 30 min before injection, 1.6 ml of stock solution was diluted in 11.6 ml of PBS to make a 5 mg/ml injection solution.
Vehicle control was made with 1.6 ml DMSO diluted in 11.6 ml PBS. Mice were injected i.p. with aspirin at 100 mg/kg, once per week. A similar volume:weight ratio of vehicle was administered to control animals.
In order to explore therapeutic potential and identify whether platelets were necessary for delivering the pro-tumorigenic instigating stimulus in the LBC macroenvironment, we treated mice with aspirin, which inhibits platelet activity (28). Mice were injected with LBC instigators that were permitted to grow for 4 weeks prior to initiation of weekly treatments of either aspirin or vehicle control; responders were then injected into these mice two days following the first aspirin treatment (FIG. 35A). […]

We go through 1 compound from patent US10295530B2, “Functional assay for cancer recurrence and malignant potential” (THE BRIGHAM AND WOMEN'S HOSPITAL, INC., priority 2012, dated 2019).

Molecules are shown by their SMILES.

As to `CC(=O)Oc1ccccc1C(=O)O` [aspirin, Aspirin], for the setting “aspirin 100 mg/kg i.p. once per week vs vehicle”, the circulating platelet counts result is “did not significantly affect”. In addition, the “numbers of VEGFR2-positive cells in the marrow relative to cancer-free mice” value (aspirin-treated LBC-bearing mice, not significantly different from vehicle-treated) was approximately 2 fold.
